# These are yes or no findings as the source states them, for the method shown. Some entries that bind do so weakly or less than the wild type.
# Protein sequences, listed by entry. Tags and fused reporters are not part of them. Residues count along the entry.
# UniProt P15391, residues 20-186: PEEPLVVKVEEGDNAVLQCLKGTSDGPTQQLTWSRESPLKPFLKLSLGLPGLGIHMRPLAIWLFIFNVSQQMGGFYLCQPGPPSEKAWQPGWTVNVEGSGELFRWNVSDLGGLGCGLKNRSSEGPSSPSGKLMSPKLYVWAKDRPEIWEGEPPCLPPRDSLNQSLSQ
# B1: F3.124.7 (antibody, human IgG1, V domains shown)
# VH: EVQLQQSGPVLVKPGASVKMSCKASGYTFTDYYMNWVKQRHGKSLEWIGISNPYNGGTSYNQKFKDKATLTVDKSSSTAYMELNSLTSEDSAVYYCAREGGTAQPTSGMDYWGQGTSVTVSS
# VL: NIMMTQSPSSLAVSAGEKVTMSCKSSQSVLYSSNQKNYLAWYQQKPGQSPKLLIYWASTRESGVPDRFTGSGSGTDFTLTISSVQPEDPAVYYCHQYRSSYTFGGGTKLEIK
# B2: F5.11.2 (antibody, human IgG1, V domains shown)
# VH: EVQLVESGGDLVKPGGSLKLSCAASGFTFSSYGMSWVRQTPDKRLEWVATISHGGSYTHYPDSVKGRFTISRDNAKNTLYLQMNSLKSEDTAMYYCVRLPITTVEAPYFFDYWGQGTTLTVSS
# VL: DIQMTQTTSSLSASLGDRVTISCRASQDIRNYLNWYQQKPDGTVKLLIYYTSILHSGVPSRFSGSGSGTDYSLTINNLEQEDVATYFCQQGNTLYTFGGGTEVELR
# B3: F3.23.10 (antibody, human IgG1, V domains shown)
# VH: EFQLQQSGPELVKPGASVKISCKASDYSFTDYNMNWVKQSNGASLEWIGIINPNFGSTSYNQKFKGKATLTVDQSSSTAFMQLNSLTSEDSAVYYCARSEYYGSSGFAYWGQGTLVTVSA
# VL: DVVVTQTPLSLPVSFGDQVSISCRSSQSLVNSYGNTYLSWYLHKPGQSPQLLIYGISNRFSGVPDRFSGSGSGTDFTLKITTIKPEDLGMYYCLQGTHQPWTFGGGTKLEIK
# Target: human CD19 exon1-3-his protein (human) (UniProt P15391)
# Assay: ELISA, coated at 2 ug/mL
row,binding,Binder
1,binds,B1
2,binds,B2
3,binds,B3

# Target: human CD19 exon1-3-His tag protein (human) (UniProt P15391)
# Assay: ELISA, coated human CD19 exon 1-3-His
row,binding,Binder
1,binds,B1
2,binds,B2
3,binds,B3

# Target: human CD19 exon1-3-His tag protein (human) (UniProt P15391)
# Assay: ELISA on coated human CD19 exon 1-3-His
row,binding,Binder
1,binds,B1
2,binds,B2
3,binds,B3
